From article PMC7819943, “Rice protein-binding microarrays: a tool to detect cis-acting elements near promoter regions in rice”
Some of the results follow.

target: T1, OsSMF1 (Oryza sativa, UniProt Q6ZLB0 1-436); assay: protein-binding microarray (RPBM); PBS, 2% BSA, 51.3 ng/ul salmon testes DNA, 50 uM zinc acetate, 200 nM TF, 25 C, 1 h; high values mean tight binding; conditions: protein: recombinant; tags: N-terminal polyhistidine and DsRed monomer fusion (pET32a); chain copies: 2; label: CyDye5-dUTP incorporated in the synthesized complementary strand; 3' TTTTT single-stranded linker to array surface; dsDNA, one strand shown
T1 sequence: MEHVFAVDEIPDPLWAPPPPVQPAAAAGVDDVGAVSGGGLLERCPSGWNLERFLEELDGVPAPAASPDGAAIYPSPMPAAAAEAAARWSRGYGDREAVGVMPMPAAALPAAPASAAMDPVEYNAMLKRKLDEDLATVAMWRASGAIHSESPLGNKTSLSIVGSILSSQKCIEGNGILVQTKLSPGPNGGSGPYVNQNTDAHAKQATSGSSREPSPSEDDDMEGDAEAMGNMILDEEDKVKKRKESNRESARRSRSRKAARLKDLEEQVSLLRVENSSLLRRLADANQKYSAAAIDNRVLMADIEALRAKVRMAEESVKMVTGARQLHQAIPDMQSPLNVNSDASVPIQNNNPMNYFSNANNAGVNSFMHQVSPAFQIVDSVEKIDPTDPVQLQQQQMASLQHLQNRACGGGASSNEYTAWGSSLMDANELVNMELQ
Method in brief: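 An Axon 4000B scanner gave the binding signal as per-feature fluorescence intensity in arbitrary units. This followed washing of a custom Agilent array that had been incubated for 1 h at 25 °C with 200 nM protein in PBS, 2% BSA, salmon testes DNA and 50 µM zinc acetate. The proteins were transcription factors fused at the N-terminus to polyhistidine and DsRed, expressed in E. coli BL21-CodonPlus and purified on Ni–NTA.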

Row | Sequence | binding signal
1 | TGAAAGCACGCGACCTCACGCGCCGCTAACAAAAGCCCAACGGAGTCACCTAGTGCAG | 19200 fluorescence intensity (a.u.)
2 | GTCTTGTAGTTTCTGTGAGTGAGGTGGAGGCCCTGTATGACGGAGTCACCTAGTGCAG | 5300 fluorescence intensity (a.u.)
3 | CGCCACCGGCACAACCAGGCTGTCACCGGACGCGACCTCACGGAGTCACCTAGTGCAG | 3330 fluorescence intensity (a.u.)
4 | GTGCGTTTGTGTTCCTGTTGGGGATTGGCCAGTGAAATTACGGAGTCACCTAGTGCAG | 13800 fluorescence intensity (a.u.)
5 | CCAGCATCTGACACATCCTTTCCTAGCTGATCGACTCCATCGGAGTCACCTAGTGCAG | 3420 fluorescence intensity (a.u.)
6 | CTTGGATTTGAATATCATTTGGGTCAAATAGGACGGTAAACGGAGTCACCTAGTGCAG | 5210 fluorescence intensity (a.u.)
7 | GGATGGCCTCCGCGGCTCGCGTCACCCCACCCCGAGCTATCGGAGTCACCTAGTGCAG | 3430 fluorescence intensity (a.u.)
8 | GCGCTTGTGACGCGCGCGTTTGGTGCTGTGGACTGTATGTCGGAGTCACCTAGTGCAG | 4080 fluorescence intensity (a.u.)
9 | GGGCGTAATCGTCACCGCAGTCTTGTCGTCTCCCATGATGCGGAGTCACCTAGTGCAG | 3600 fluorescence intensity (a.u.)
10 | CGTGTCTGCTCGACGCCTCAGCTTCCTCCGCTCATCGCCACGGAGTCACCTAGTGCAG | 4290 fluorescence intensity (a.u.)
11 | GCTAAGCTAAACTCAACGAAGACGTGACGAATGTCAAATGCGGAGTCACCTAGTGCAG | 4130 fluorescence intensity (a.u.)
12 | CCCCGTTTCTTCTCTTCTTCCATCTTCGTCATCTTCCTCCCGGAGTCACCTAGTGCAG | 4140 fluorescence intensity (a.u.)
13 | ATGCCACCACATGGCGTCGTCGTCATATAATGGGTAATCGCGGAGTCACCTAGTGCAG | 4180 fluorescence intensity (a.u.)
14 | GTCGTCGTCGTCGTCACCGGGTCTTCGTCGAGACCCTGACCGGAGTCACCTAGTGCAG | 3880 fluorescence intensity (a.u.)
15 | ATCCACATTGGCAGGCTCTAACCAGGAGATGCCACATCAGCGGAGTCACCTAGTGCAG | 9610 fluorescence intensity (a.u.)
16 | AGTACGCTTTCTTACGTCACTGCTTACACGCCCGTGCGCGCGGAGTCACCTAGTGCAG | 8770 fluorescence intensity (a.u.)
17 | AGCACCAAAAGATGTCTGTTGGTATGGTTGACATGGCCAGCGGAGTCACCTAGTGCAG | 5030 fluorescence intensity (a.u.)
18 | TCTTCGCCACCGTCTGCATCGCGCCACCGCCGCCCTGCAGCGGAGTCACCTAGTGCAG | 6650 fluorescence intensity (a.u.)
19 | CCGAGCGAGCCGTGCCCGCTATAAGTTGGCCGCTGCGCTGCGGAGTCACCTAGTGCAG | 11300 fluorescence intensity (a.u.)
20 | GGAAACCACTACACATTACTCCAGATTACCGATTCAACAGCGGAGTCACCTAGTGCAG | 3200 fluorescence intensity (a.u.)
21 | GCTTCCATCCTTCCAACGAATCCACGCCGTCCATTCGCCACGGAGTCACCTAGTGCAG | 3400 fluorescence intensity (a.u.)
22 | CTTCTTCTTCTTCGCGGTGGCTGATCGATCAAAGTGAATTCGGAGTCACCTAGTGCAG | 3660 fluorescence intensity (a.u.)
23 | CGCCCCTTGCCGCTTGCCGCCTCGCCCGCTCGAGCTCATCCGGAGTCACCTAGTGCAG | 3170 fluorescence intensity (a.u.)
24 | ACTACAGTACTCCTCTCCCACTTGACCACCTCAGCTTCCTCGGAGTCACCTAGTGCAG | 4790 fluorescence intensity (a.u.)
25 | AAAGTGGTGTTTTAAAGGTGGCAAAACACGTAGATGGTCGCGGAGTCACCTAGTGCAG | 3410 fluorescence intensity (a.u.)
26 | TGCGTGCCGTGTTGCCGCGGTGGCGCGCTCCTGGAAGGCGCGGAGTCACCTAGTGCAG | 5020 fluorescence intensity (a.u.)
27 | GCTCGCGAAAACCAGAATCGTAGTAGTAGGAGCAACGTGTCGGAGTCACCTAGTGCAG | 3380 fluorescence intensity (a.u.)

Reprinted from above for reference:
Row | Sequence | binding signal
8 | GCGCTTGTGACGCGCGCGTTTGGTGCTGTGGACTGTATGTCGGAGTCACCTAGTGCAG | 4080 fluorescence intensity (a.u.)
9 | GGGCGTAATCGTCACCGCAGTCTTGTCGTCTCCCATGATGCGGAGTCACCTAGTGCAG | 3600 fluorescence intensity (a.u.)
10 | CGTGTCTGCTCGACGCCTCAGCTTCCTCCGCTCATCGCCACGGAGTCACCTAGTGCAG | 4290 fluorescence intensity (a.u.)
11 | GCTAAGCTAAACTCAACGAAGACGTGACGAATGTCAAATGCGGAGTCACCTAGTGCAG | 4130 fluorescence intensity (a.u.)

Continued:

Row | Sequence | binding signal
28 | CACACAAGGCCTGACCAGGCCTGGCCGTCATCTTCTTCTTCGGAGTCACCTAGTGCAG | 3480 fluorescence intensity (a.u.)
29 | TTTTGTGCCTGCCTGAACACTCACTGAAAGACACGCTTCCCGGAGTCACCTAGTGCAG | 4420 fluorescence intensity (a.u.)
30 | GTACAAGATTTTAATAAGTAAACTAGCTTGAGTGATGAGACGGAGTCACCTAGTGCAG | 20200 fluorescence intensity (a.u.)
31 | CGTTTTATTCTGTACTATCTCCGTCCCATAATAATTGTATCGGAGTCACCTAGTGCAG | 21900 fluorescence intensity (a.u.)
32 | AGGGATACGCGTGTATATATGGCGCGGCCCGGCCAAAAGTCGGAGTCACCTAGTGCAG | 5160 fluorescence intensity (a.u.)
33 | TCTGTACCAAACTCAATTTTAGAATTCAGAGATCCAATAACGGAGTCACCTAGTGCAG | 40000 fluorescence intensity (a.u.)
34 | AGAATTTAAAGCTCCTCAAACAGACCCTTAGTCACCTACCCGGAGTCACCTAGTGCAG | 3880 fluorescence intensity (a.u.)
35 | TAACTAATTATGTGTTAATTCATCTTTTCATTTACGTGTCCGGAGTCACCTAGTGCAG | 3780 fluorescence intensity (a.u.)
36 | CGTGCTCCCGCCTCACGTTTGCCACCTCATGGGCTGGGCTCGGAGTCACCTAGTGCAG | 7220 fluorescence intensity (a.u.)
37 | CAACGCCCGCGTCACTCGCCCTAGGGCGACACGGGCGGCGCGGAGTCACCTAGTGCAG | 4780 fluorescence intensity (a.u.)
38 | AGGATTACAATGCGTCTGCCAAGAATGGCCCGACGAGATCCGGAGTCACCTAGTGCAG | 3190 fluorescence intensity (a.u.)
39 | GCAATCCCACGTTATCCATCACCCCACCGGGGAAGCCCAACGGAGTCACCTAGTGCAG | 3310 fluorescence intensity (a.u.)
40 | GGCCGTGACGACGCGGCGCCACCGCTTGCACGCGTACGCCCGGAGTCACCTAGTGCAG | 3160 fluorescence intensity (a.u.)
41 | CCGAACCGTTCCTCCTACAGGCAATTCCCTCAACCTAAACCGGAGTCACCTAGTGCAG | 3400 fluorescence intensity (a.u.)
42 | TTTGTCCCTGTACGGTTCTACATTGTACATATATATATATCGGAGTCACCTAGTGCAG | 12600 fluorescence intensity (a.u.)
43 | GACTAGCCCCACCTCACTCCTCCCCTCGCGACCGCGTCAACGGAGTCACCTAGTGCAG | 3650 fluorescence intensity (a.u.)
44 | GGCGATGCTTTGATTGCATCACACCGTCGTCGTAAGCCCACGGAGTCACCTAGTGCAG | 3150 fluorescence intensity (a.u.)
45 | CCTCGCAGTCGCAGCAGCCACCTCTCGCCAAACTCCCTCTCGGAGTCACCTAGTGCAG | 15200 fluorescence intensity (a.u.)
46 | ATTATTTATTTTGTTTGTGATTTGCTTTATTATTAAAATACGGAGTCACCTAGTGCAG | 20800 fluorescence intensity (a.u.)
47 | AGCTGTGTTGCTAATTGTGGCATTGTGATGTGATGATCCCCGGAGTCACCTAGTGCAG | 3160 fluorescence intensity (a.u.)
48 | GTGGTCTCGTGGGCATCGTCCCAAGTCGCCGGGATCCAGACGGAGTCACCTAGTGCAG | 3460 fluorescence intensity (a.u.)
49 | CCGGCCATCTGCTGCCGCTCTTGCGCCGCCTAGTTTTGCGCGGAGTCACCTAGTGCAG | 3820 fluorescence intensity (a.u.)
50 | TCCTTGATCCTTTATTTGATATTTGTTTAGATATATAATTCGGAGTCACCTAGTGCAG | 37900 fluorescence intensity (a.u.)
51 | TAGACACGTAAGCGCCACGTCAGCCAAAACCACCATCTAACGGAGTCACCTAGTGCAG | 32400 fluorescence intensity (a.u.)
52 | TTAAATAAATCATTGCAGTGTAAATGGTAATATTCAGGCCCGGAGTCACCTAGTGCAG | 31600 fluorescence intensity (a.u.)
53 | GCTCCGTGAGATGACGTGGAGTTTACTTCCTCCGTTCCATCGGAGTCACCTAGTGCAG | 16200 fluorescence intensity (a.u.)
54 | ATGACGGAAAGAGTACATGACAAATCAATTTCCCTGTCCTCGGAGTCACCTAGTGCAG | 3840 fluorescence intensity (a.u.)
